This is one part of the list. These are further read-outs of the screen, such as a control signal, another cell line or another target. No call is given for them. Compounds called inactive in the main read-out are mostly missing here. Words in brackets tell the shape of the fitted curve; partial curves, single points and poor fits give uncertain potencies.
Assay: qHTS Assay to Find Inhibitors of Chronic Active B-Cell Receptor Signaling
Details: ABC-DLBCL IkBa-CBG/CBR reporter, luminescence ratio (green luciferase fused to IkBa over red control in TMD8 lymphoma cells), 4 h
Outline: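 TMD8 human ABC-DLBCL cells with doxycycline-inducible IκBα–green luciferase fusion and unfused red luciferase, in 0.5% FBS medium; compounds up to 46 uM, 4 h at 37C. Green/red luminescence ratio, filter-overlap corrected, fitted to concentration-response curves.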

[1] = measured here: CBR red luminescence, cell number

| Structure (SMILES) | AC50 [1] | AC50 (measured here: IkBa-CBG green luminescence) |
| --- | --- | --- |
| O=C(Nc1cccc(S(=O)(=O)N2CCCC2)c1)c1ccc2c(=O)n3c(nc2c1)CCCCC3 | 16.4 µM [falling, partial curve] | – |
| C=CCn1cc(C(=O)OC)c(=O)c2cc(S(=O)(=O)N3CCC(C)CC3)ccc21 | 3.16 µM [falling, partial curve, poor fit] | – |
| O=C1C2CC=C(Cl)CC2C(=O)N1CN(Cc1ccco1)CN1C(=O)C2CC=C(Cl)CC2C1=O (stereo not given) | 3.55 µM [rising, full curve, poor fit] | – |
| CCCCOc1cccc(/C=N/NC(=O)c2csc(C)c2C)c1 | 3.16 µM [falling, partial curve, poor fit] | – |
| Cc1c(C(=O)OCCOc2ccccc2)[nH]c2c1C(=O)CCC2 | 29.1 µM [falling, single point] | – |
| COc1ccc(Sc2nnc(Cc3ccccc3)c3ccccc23)cc1 | 6.31 µM [falling, single point] | – |
| COc1ccc(N2CCN(c3cc(C)c4ccccc4n3)CC2)cc1 | 6.31 µM [rising, partial curve, poor fit] | – |
| O=C(Cn1[nH]c(=O)c2ccccc2c1=O)OCC(=O)c1ccc(F)c(F)c1 | 5.8 µM [falling, partial curve, poor fit] | – |
| O=c1c2c(nc3nc(COc4ccccc4)[nH]n13)CCC2 | 1.84 µM [falling, full curve] | – |
| COc1ccc(C(=O)Nc2sc(C)c(C)c2CN2CCOCC2)cc1 | 32.6 µM [falling, single point] | – |
| Cc1cccc(C2N3CC4(C(C)C)CN2CC(C(C)C)(C3)C4=O)c1 (stereo not given) | 12.6 µM [rising, partial curve, poor fit] | – |
| CCc1cccc2c(C(=O)COC(=O)/C=C/c3ccc(O)c(OC)c3)c[nH]c12 | 20.6 µM [falling, single point] | – |
| O=C(NC(=S)Nc1ccccn1)c1ccc(-c2ccccc2)cc1 | 11.2 µM [falling, single point] | – |
| O=C(Nc1nnc(-c2ccco2)o1)c1ccc(S(=O)(=O)N2CCCC2)cc1 | 28.2 µM [falling, single point] | – |
| COc1ccccc1-c1noc(CCC(=O)Nc2ccccc2Cl)n1 | 18.4 µM [falling, single point] | – |
| O=C(CN1C(=O)NC2(CCCC2)C1=O)Nc1nc(-c2ccc(F)cc2)cs1 | 14.1 µM [falling, single point] | – |
| COC(=O)C(C)N1C(=O)S/C(=C/c2cc(C)n(-c3ccccn3)c2C)C1=O (stereo not given) | 29.1 µM [rising, single point] | 29.1 µM [falling, single point] |
| COC(=O)C(Cc1c[nH]c2ccccc12)NC(=O)C1CC1 (stereo not given) | 14.1 µM [falling, partial curve, poor fit] | – |
| Cc1cnc(NC(=O)c2ccc(F)c(S(=O)(=O)N3CCOCC3)c2)s1 | 23.1 µM [falling, single point] | – |
| Cc1c(NS(=O)(=O)c2ccc(N)cc2)c(=O)n(-c2ccccc2)n1C | 0.447 µM [rising, full curve, poor fit] | – |
| CN(Cc1cnn(-c2ccc(F)cc2)c1)Cc1nc(Cc2ccccc2)no1 | 0.708 µM [rising, full curve, poor fit] | – |
| CC(C)(C)C(=O)/C(=C/c1ccc(Cl)cc1)n1cncn1 | 12.6 µM [falling, partial curve, poor fit] | – |

Quoted from the listing:
AC50 [1], COc1ccc(Sc2nnc(Cc3ccccc3)c3ccccc23)cc1 is entered as 6.31 µM [falling, single point]
AC50 [1], O=C(Nc1nnc(-c2ccco2)o1)c1ccc(S(=O)(=O)N2CCCC2)cc1 is entered as 28.2 µM [falling, single point]
AC50 [1], C=CCn1cc(C(=O)OC)c(=O)c2cc(S(=O)(=O)N3CCC(C)CC3)ccc21 is entered as 3.16 µM [falling, partial curve, poor fit]

Later entries.

| Structure (SMILES) | AC50 [1] | AC50 (measured here: IkBa-CBG green luminescence) |
| --- | --- | --- |
| CCOCCOC(=O)c1[nH]c2c(c1C)C(=O)CC(c1ccc(N(C)C)cc1)C2 (stereo not given) | 8.2 µM [falling, partial curve, poor fit] | – |
| Cc1ccc(CNC(=O)c2cc(-c3cc(C)cc(C)c3O)n[nH]2)cc1 | 10 µM [falling, partial curve, poor fit] | – |
| COc1cccc(/C=C2\Sc3ccc(C(=O)NCc4cccnc4)cc3N(C)C2=O)c1 | 22.4 µM [falling, single point] | – |
| O=C(CCc1ccccc1)NCc1ccc(F)cc1 | 20 µM [rising, partial curve, poor fit] | – |
| O=C(Nc1ccc(-n2ccc(C(F)(F)F)n2)cc1)c1cccs1 | 17.8 µM [falling, single point] | – |
| CCCOc1ccc(S(=O)(=O)n2cc(Br)c(=O)[nH]c2=O)cc1 | 31.6 µM [falling, single point] | – |
| Cc1occc1C(=O)Nc1nnc(-c2cccs2)s1 | 35.5 µM [falling, single point] | – |
| CCS(=O)(=O)Nc1ccc(C2=NN(C(=O)c3ccco3)C(c3cccc(F)c3)C2)cc1 (stereo not given) | 12.6 µM [falling, single point] | – |
| Cc1ccc(-n2sc3ccccc3c2=O)cc1S(=O)(=O)N1CCCCC1 | 2.59 µM [falling, partial curve] | – |
| COCCn1c(SCC(=O)c2c[nH]c3ccccc23)nnc1-c1ccncc1 | 1.3 µM [falling, full curve, poor fit] | – |
| Cn1nc(-c2ccc(Cl)cc2)c2cc(C(=O)NCC3CCCO3)sc21 (stereo not given) | 14.1 µM [falling, single point] | – |
| Cc1cc(N/C=C/C(=O)c2ccc(Br)cc2)no1 | 0.206 µM [rising, partial curve, poor fit] | – |
| CC1(C)COC(c2cccn2Cc2ccccc2Cl)=N1 | 35.5 µM [rising, partial curve, poor fit] | – |
| CN(C(=O)CSc1nc2ccc(Br)cc2c(=O)n1Cc1ccco1)C1CCS(=O)(=O)C1 (stereo not given) | 0.562 µM [falling, full curve, poor fit] | – |
| CN(C)CCNC(=O)c1cc2c(s1)-c1ccc(Cl)cc1SC2 | 11.2 µM [falling, partial curve] | – |
| O=C(CCl)NN1C(=O)NC2(CCCCC2)C1=O | 35.5 µM [rising, single point] | – |
| CCCCN(c1ccccc1)c1ncnc2c1cnn2-c1ccc(Cl)cc1 | 2 µM [rising, full curve, poor fit] | – |
| O=c1[nH]c(C2CCN(S(=O)(=O)/C=C/c3ccccc3)CC2)nc2c1nnn2Cc1ccccc1 | 35.5 µM [falling, single point] | – |
| O=C(NNS(=O)(=O)c1ccccc1[N+](=O)[O-])c1ccc(O)cc1 | 7.31 µM [falling, partial curve, poor fit] | – |
| CC1CCC(NC(=O)C2COc3ccccc3O2)CC1 (stereo not given) | 2.91 µM [rising, full curve, poor fit] | – |
| O=C1CCCC2=C1C1(CCCC1)N=C(Nc1nc3ccccc3o1)N2 | 7.08 µM [falling, partial curve] | – |
| CCOc1ccc(CCNC(=O)CSc2cc(=O)n(C)c3ccccc23)cc1OCC | 3.26 µM [rising, partial curve, poor fit] | – |

| Structure (SMILES) | AC50 [1] | AC50 (measured here: IkBa-CBG green luminescence) |
| --- | --- | --- |
| Cc1cc(C(=O)COC(=O)c2cccnc2Cl)c(C)n1CC1CCCO1 (stereo not given) | 31.6 µM [rising, single point] | – |
| O=C(Nc1ccccc1)C1CC(=O)n2ncnc2N1 (stereo not given) | 2.31 µM [rising, full curve, poor fit] | – |
| CCOc1ccc(-c2cc(CCCC(=O)Nc3cccc(OC)c3)no2)cc1 | 0.366 µM [falling, full curve, poor fit] | – |
| S=C1NC2(CCS1)Oc1ccccc1C1CC(c3ccccc3)=NN12 (stereo not given) | 1.12 µM [rising, full curve, poor fit] | – |
| CNC(=S)N(CCc1c(C)[nH]c2ccc(Cl)cc12)Cc1cccs1 | 11.2 µM [falling, partial curve, poor fit] | – |
| Oc1[nH]c2ccccc2c1/C=N/N1CCCCC1 | 3.98 µM [falling, partial curve, poor fit] | – |
| COc1cccc(NC(=O)c2cnsn2)c1 | 7.31 µM [falling, partial curve, poor fit] | – |
| COC(=O)c1ccccc1NC1=C/C(=N\S(=O)(=O)c2ccc(C(=O)O)cc2)c2ccccc2C1=O | 11.2 µM [falling, partial curve] | – |
| N#Cc1c(-c2ccc(F)cc2)nc(-c2ccccc2)[nH]c1=O | 35.5 µM [falling, single point] | – |
| COCCNC(=O)C(c1ccc(C)o1)N(C(=O)c1snc(C(N)=O)c1N)c1ccc(C)cc1 (stereo not given) | 18.4 µM [rising, single point] | – |
| Cn1nnnc1SCC(=O)c1ccc2c(c1)OCCO2 | 0.355 µM [rising, full curve, poor fit] | – |
| CCC1=C/C(=C/N(C)c2ccccc2)C(=O)S1 | 14.6 µM [falling, single point] | – |
| COc1ccc(S(=O)(=O)N(C)Cc2ccc3c(c2)OCCO3)cc1 | 0.411 µM [rising, partial curve, poor fit] | – |
| COc1cc2c(cc1OC)CN(CC(=O)Nc1ccc3c(c1)OC(F)(F)O3)CC2 | 6.51 µM [rising, partial curve, poor fit] | – |
| Brc1cccc2sc(N3CCN(c4ccccc4)CC3)nc12 | 8.91 µM [rising, partial curve] | – |
| COCc1c(C(=O)Nc2nc(C)cs2)oc2ccccc12 | 7.94 µM [falling, partial curve, poor fit] | – |
| c1csc(-c2nc3c4ccccc4c4ccccc4c3[nH]2)c1 | 0.731 µM [falling, full curve, poor fit] | – |
| C=CCc1cc(/C=C2/NC(=O)NC2=O)cc(OCC)c1O | 4.47 µM [rising, full curve] | – |
| O=C(Cc1c(F)cccc1Cl)NC1=NCCS1 | 31.6 µM [rising, single point] | – |
| COc1ccccc1N=C1SCC(=O)N1Cc1ccco1 | 35.5 µM [falling, single point] | – |
